The results in this text go back to paper PMC6805867, “Amphiphilic Triazine Polymer Derivatives as Antibacterial And Anti-atopic Agents in Mice Model” (Scientific Reports, 2019).

Molecules are shown by their SMILES.

The test system of the series is bacteria versus sheep red blood cells. In words: Cell selectivity, TI (MHC/GM). As to conditions: ratio MHC/GM.
In the case of `NCCCN(CCCN)c1nc(N)nc(NCCNc2nc(Cl)nc(N(CCCN)CCCN)n2)n1` [TZP1], the “TI (MHC/GM)” value was found to be 10.7. In the case of `N=C(N)NCCCN(CCCNC(=N)N)c1nc(N)nc(NCCNc2nc(Cl)nc(N(Cc3ccccc3)Cc3ccccc3)n2)n1` [TZP2] it was 70.0; in that of `NCCCN(CCCN)c1nc(N)nc(NCCNc2nc(Cl)nc(N(Cc3ccccc3)Cc3ccccc3)n2)n1` [TZP3], 113.8; in that of `NCCCN(CCCN)c1nc(N)nc(NCCNc2nc(NCCNc3nc(Cl)nc(N(Cc4ccccc4)Cc4ccccc4)n3)nc(N(CCCN)CCCN)n2)n1` [TZP4], 204.8. In the case of `NCCCN(CCCN)c1nc(Cl)nc(NCCNc2nc(NCCNc3nc(N)nc(NCCC(c4ccccc4)c4ccccc4)n3)nc(N(CCCN)CCCN)n2)n1` [TZP5] it was 170.7; in that of `N=C(N)NCCCN(CCCNC(=N)N)c1nc(Cl)nc(NCCNc2nc(NCCNc3nc(N)nc(N(CCCN)CCCN)n3)nc(N(Cc3ccccc3)Cc3ccccc3)n2)n1` [TZP6], 204.8.

For the compound `NCCCN(CCCN)c1nc(N)nc(NCCNc2nc(NCCNc3nc(Cl)nc(N(CCCN)CCCN)n3)nc(N(CCCN)CCCN)n2)n1` [TZP7], the “TI (MHC/GM)” value stood at 42.7. For the compound `NCCCN(CCCN)c1nc(NCCNc2nc(N)nc(N(Cc3ccccc3)Cc3ccccc3)n2)nc(NCCNc2nc(Cl)nc(N(Cc3ccccc3)Cc3ccccc3)n2)n1` [TZP8], the “TI (MHC/GM)” value is on record as 0.7. In the case of `N=C(N)NCCCN(CCCNC(=N)N)c1nc(N)nc(NCCNc2nc(NCCNc3nc(Cl)nc(N(CCCNC(=N)N)CCCNC(=N)N)n3)nc(N(Cc3ccccc3)Cc3ccccc3)n2)n1` [TZP9] it was 146.3; in that of `N=C(N)NCCCN(CCCNC(=N)N)c1nc(Cl)nc(NCCNc2nc(NCCNc3nc(N)nc(NCCC(c4ccccc4)c4ccccc4)n3)nc(N(CCCNC(=N)N)CCCNC(=N)N)n2)n1` [TZP10], 73.1; in that of `N=C(N)NCCCN(CCCNC(=N)N)c1nc(Cl)nc(NCCNc2nc(NCCNc3nc(NCCNc4nc(N)nc(NCCC(c5ccccc5)c5ccccc5)n4)nc(N(CCCNC(=N)N)CCCNC(=N)N)n3)nc(NCCC(c3ccccc3)c3ccccc3)n2)n1` [TZP11], 1.6. In the case of `NCCCN(CCCN)c1nc(Cl)nc(NCCNc2nc(NCCNc3nc(NCCNc4nc(N)nc(NCCC(c5ccccc5)c5ccccc5)n4)nc(N(CCCN)CCCN)n3)nc(NCCC(c3ccccc3)c3ccccc3)n2)n1` [TZP12] it was 3.3; in that of `NCCCN(CCCN)c1nc(N)nc(NCCNc2nc(NCCNc3nc(NCCNc4nc(NCCNc5nc(Cl)nc(N(CCCN)CCCN)n5)nc(N(CCCN)CCCN)n4)nc(N(CCCN)CCCN)n3)nc(N(CCCN)CCCN)n2)n1` [TZP13], 73.1; in that of `CC[C@H](C)[C@H](NC(=O)CN)C(=O)NCC(=O)N[C@@H](C)C(=O)N[C@H](C(=O)N[C@@H](CC(C)C)C(=O)N[C@@H](CCCCN)C(=O)N[C@H](C(=O)N[C@@H](CC(C)C)C(=O)N[C@H](C(=O)N[C@H](C(=O)NCC(=O)N[C@@H](CC(C)C)C(=O)N1CCC[C@H]1C(=O)N[C@@H](C)C(=O)N[C@@H](CC(C)C)C(=O)N[C@H](C(=O)N[C@@H](CO)C(=O)N[C@@H](Cc1c[nH]c2ccccc12)C(=O)N[C@H](C(=O)N[C@@H](CCCCN)C(=O)N[C@@H](CCCNC(=N)N)C(=O)N[C@@H](CCCCN)C(=O)N[C@@H](CCCNC(=N)N)C(=O)N[C@@H](CCC(N)=O)C(=O)N[C@@H](CCC(N)=O)C(N)=O)[C@@H](C)CC)[C@@H](C)CC)[C@@H](C)O)[C@@H](C)O)C(C)C)C(C)C` [melittin, reference compound], 1.1.
